# Residue numbers refer to the chain shown, from its start. This is a selection; strong and weak results do not stand in their true shares. Calls are pooled over several reports, among them a noisy single-well screen. The list shows a part of the results. The list shows a part of the results.
# Chains of the proteins cited; added tags and fusions are not shown. Chains listed by the source or under a name are the forms on record and can include a tag or linker.
# OR2W1, as listed by the source: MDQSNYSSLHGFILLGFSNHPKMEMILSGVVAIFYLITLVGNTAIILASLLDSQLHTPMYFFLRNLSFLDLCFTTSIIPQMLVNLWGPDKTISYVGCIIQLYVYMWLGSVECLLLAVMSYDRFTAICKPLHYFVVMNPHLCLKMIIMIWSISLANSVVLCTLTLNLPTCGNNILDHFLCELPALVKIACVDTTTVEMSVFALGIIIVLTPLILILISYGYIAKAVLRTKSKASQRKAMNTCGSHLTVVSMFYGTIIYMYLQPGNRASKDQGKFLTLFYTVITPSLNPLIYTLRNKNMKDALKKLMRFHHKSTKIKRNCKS
# Legend:
# Conditions in all cases: stereoisomer not certain
# OR2T5 = tested on: T1, OR2T5
# T1 sequence (whole entry): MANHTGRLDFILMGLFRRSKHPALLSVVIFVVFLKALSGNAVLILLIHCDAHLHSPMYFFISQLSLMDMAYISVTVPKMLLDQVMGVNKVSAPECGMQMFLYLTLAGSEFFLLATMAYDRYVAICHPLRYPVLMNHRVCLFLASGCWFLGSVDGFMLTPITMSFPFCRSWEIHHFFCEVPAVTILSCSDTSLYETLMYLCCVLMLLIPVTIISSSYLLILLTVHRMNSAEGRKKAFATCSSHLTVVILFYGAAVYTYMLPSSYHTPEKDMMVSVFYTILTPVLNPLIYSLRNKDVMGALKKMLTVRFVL
# Outline: (§1)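 Each entry records the cell line, G-protein, co-transfected protein and tags used. Methods varied with the source, often transient luciferase assays in mammalian cell lines. A receptor–molecule pair is called responsive (active) if the original authors judged its signal statistically different from baseline and non-responsive (inactive) otherwise.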
# OR2T6 = tested on: T2, OR2T6
# T2 sequence (whole entry): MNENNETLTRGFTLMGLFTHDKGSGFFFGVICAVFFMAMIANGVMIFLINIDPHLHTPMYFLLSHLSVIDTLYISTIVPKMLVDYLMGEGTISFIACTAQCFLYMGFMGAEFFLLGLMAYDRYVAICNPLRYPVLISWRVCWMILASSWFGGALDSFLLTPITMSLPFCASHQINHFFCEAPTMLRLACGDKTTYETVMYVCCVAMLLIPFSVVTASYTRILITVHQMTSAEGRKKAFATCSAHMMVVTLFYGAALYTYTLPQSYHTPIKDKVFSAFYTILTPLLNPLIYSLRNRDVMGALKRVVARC
# Outline: as §1
# OR2T8 = tested on: T3, OR2T8
# T3 sequence (whole entry): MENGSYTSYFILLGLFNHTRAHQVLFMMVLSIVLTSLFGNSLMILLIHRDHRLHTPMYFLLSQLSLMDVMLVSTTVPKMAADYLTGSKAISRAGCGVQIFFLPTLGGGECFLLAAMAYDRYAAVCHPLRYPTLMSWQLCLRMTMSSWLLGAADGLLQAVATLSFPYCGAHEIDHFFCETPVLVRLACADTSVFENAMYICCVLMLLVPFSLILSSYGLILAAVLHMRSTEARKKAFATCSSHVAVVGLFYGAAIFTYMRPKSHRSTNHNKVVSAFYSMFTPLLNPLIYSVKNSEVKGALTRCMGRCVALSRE
# Outline: as §1
# OR2V1 = tested on: T4, OR2V1
# T4 sequence (whole entry): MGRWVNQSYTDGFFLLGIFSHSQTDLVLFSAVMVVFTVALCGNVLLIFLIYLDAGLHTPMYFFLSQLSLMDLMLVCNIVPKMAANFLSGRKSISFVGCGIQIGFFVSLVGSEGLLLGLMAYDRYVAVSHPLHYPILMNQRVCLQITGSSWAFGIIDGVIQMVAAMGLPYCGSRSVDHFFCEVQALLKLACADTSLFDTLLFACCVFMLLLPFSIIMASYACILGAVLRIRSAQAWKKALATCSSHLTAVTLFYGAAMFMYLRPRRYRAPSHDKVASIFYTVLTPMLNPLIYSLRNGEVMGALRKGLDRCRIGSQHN
# Outline: as §1
# OR2V2 = tested on: T5, OR2V2
# T5 sequence (whole entry): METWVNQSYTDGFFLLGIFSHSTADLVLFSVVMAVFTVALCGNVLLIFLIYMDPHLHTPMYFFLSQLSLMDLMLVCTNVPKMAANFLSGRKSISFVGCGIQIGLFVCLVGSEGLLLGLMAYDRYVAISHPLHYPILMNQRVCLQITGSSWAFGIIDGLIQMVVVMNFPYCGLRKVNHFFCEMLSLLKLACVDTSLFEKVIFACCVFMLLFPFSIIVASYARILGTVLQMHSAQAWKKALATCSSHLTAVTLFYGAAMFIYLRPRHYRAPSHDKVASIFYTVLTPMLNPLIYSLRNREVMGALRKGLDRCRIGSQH
# Outline: as §1
# OR2W1 (Homo sapiens) = target: T6, OR2W1 (Homo sapiens) (UniProt Q9Y3N9)
# T6 sequence (whole entry): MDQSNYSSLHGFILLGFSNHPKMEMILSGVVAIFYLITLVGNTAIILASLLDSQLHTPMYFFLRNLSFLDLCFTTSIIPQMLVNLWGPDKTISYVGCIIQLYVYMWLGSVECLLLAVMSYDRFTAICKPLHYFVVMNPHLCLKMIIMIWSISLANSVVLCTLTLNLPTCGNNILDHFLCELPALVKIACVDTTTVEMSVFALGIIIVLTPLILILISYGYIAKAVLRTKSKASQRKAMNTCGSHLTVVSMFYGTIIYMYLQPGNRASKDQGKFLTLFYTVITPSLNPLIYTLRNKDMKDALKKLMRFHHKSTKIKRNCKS
# Outline: as §1
# OR2W1 = tested on: T7, OR2W1
# T7 sequence (whole entry): T6 sequence (whole entry) with D296N
# Outline: as §1
# OR2W3 = tested on: T8, OR2W3
# T8 sequence (whole entry): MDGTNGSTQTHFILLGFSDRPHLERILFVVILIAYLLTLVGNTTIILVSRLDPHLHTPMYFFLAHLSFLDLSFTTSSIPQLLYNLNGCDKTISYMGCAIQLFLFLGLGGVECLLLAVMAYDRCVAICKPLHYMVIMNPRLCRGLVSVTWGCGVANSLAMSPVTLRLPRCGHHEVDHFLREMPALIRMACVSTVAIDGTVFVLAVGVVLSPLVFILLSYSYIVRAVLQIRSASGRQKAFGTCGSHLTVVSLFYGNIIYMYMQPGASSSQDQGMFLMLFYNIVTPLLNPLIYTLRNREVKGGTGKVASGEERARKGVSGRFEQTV
# Outline: as §1
# OR2W5P (Homo sapiens) = target: T9, OR2W5P (Homo sapiens) (UniProt A6NFC9)
# T9 sequence (whole entry): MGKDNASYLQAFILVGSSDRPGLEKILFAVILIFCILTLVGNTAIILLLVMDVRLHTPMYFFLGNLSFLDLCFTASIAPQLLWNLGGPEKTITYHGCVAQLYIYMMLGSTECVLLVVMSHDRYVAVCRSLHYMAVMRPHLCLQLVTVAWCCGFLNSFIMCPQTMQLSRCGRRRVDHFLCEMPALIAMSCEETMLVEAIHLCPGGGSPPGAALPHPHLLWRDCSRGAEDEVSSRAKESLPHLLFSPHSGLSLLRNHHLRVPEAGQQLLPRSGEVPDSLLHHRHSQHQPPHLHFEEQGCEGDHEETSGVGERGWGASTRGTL
# Outline: as §1
# OR2Y1 = tested on: T10, OR2Y1
# T10 sequence (whole entry): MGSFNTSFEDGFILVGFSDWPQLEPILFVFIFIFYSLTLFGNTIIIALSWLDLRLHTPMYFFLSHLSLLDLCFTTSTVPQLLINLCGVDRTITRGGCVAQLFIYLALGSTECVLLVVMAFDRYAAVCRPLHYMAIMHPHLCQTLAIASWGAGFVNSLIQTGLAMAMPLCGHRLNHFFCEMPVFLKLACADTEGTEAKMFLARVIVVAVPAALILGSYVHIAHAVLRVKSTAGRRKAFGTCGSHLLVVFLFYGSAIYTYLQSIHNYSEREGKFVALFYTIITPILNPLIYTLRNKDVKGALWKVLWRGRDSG
# Outline: as §1
# OR2Z1 (Homo sapiens) = target: T11, OR2Z1 (Homo sapiens) (UniProt Q8NG97)
# T11 sequence (whole entry): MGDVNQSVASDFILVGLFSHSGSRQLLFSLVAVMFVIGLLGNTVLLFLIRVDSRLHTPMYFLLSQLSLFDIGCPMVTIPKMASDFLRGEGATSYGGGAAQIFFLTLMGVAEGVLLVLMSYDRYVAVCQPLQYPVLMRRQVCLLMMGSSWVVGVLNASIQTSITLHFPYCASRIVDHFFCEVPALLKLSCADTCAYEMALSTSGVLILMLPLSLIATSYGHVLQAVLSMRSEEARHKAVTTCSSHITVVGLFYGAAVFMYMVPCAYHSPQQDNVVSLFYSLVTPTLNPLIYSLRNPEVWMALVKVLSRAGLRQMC
# Outline: as §1
# OR3A1 (Homo sapiens) = target: T12, OR3A1 (Homo sapiens) (UniProt P47881)
# T12 sequence (whole entry): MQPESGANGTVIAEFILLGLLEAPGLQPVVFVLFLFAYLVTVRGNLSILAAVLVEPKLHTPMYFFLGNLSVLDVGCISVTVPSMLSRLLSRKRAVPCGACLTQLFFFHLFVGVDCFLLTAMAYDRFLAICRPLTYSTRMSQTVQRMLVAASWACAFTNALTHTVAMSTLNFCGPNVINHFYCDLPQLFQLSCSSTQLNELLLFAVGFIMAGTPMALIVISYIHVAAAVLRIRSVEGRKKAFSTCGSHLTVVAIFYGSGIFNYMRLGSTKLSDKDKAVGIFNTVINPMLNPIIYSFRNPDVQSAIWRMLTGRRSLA
# Outline: as §1
# OR3A2 (Homo sapiens) = target: T13, OR3A2 (Homo sapiens) (UniProt P47893)
# T13 sequence (whole entry): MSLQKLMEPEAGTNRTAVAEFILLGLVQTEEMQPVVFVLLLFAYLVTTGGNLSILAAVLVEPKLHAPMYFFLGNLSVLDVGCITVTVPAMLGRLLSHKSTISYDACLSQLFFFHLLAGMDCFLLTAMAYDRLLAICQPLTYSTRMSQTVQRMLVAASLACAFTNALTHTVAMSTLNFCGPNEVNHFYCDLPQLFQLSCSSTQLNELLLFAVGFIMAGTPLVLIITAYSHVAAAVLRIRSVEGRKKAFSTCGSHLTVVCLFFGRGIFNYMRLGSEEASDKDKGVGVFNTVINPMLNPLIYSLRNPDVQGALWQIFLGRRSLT
# Outline: as §1
# OR3A3 = tested on: T14, OR3A3
# T14 sequence (whole entry): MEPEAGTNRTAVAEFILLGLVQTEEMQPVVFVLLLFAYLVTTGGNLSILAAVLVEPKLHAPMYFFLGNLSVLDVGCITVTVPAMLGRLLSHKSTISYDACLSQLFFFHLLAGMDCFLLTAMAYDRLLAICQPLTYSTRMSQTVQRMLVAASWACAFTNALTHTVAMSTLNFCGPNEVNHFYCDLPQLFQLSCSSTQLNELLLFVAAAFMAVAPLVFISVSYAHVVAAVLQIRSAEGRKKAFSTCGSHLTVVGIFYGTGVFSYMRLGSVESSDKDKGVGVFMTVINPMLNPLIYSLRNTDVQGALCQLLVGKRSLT
# Outline: as §1
# OR3A4 = tested on: T15, OR3A4
# T15 sequence (whole entry): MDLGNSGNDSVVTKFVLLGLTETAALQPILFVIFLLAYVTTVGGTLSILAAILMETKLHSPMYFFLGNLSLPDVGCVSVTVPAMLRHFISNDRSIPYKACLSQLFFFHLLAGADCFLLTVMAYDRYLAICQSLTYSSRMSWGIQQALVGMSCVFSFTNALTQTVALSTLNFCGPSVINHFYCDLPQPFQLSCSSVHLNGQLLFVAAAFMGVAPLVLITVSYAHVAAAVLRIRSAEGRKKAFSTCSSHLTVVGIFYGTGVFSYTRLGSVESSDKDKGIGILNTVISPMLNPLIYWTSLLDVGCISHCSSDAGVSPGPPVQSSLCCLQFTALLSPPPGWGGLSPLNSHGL
# Outline: as §1
# OR4A16 (Homo sapiens) = target: T16, OR4A16 (Homo sapiens) (UniProt Q8NH70)
# T16 sequence (whole entry): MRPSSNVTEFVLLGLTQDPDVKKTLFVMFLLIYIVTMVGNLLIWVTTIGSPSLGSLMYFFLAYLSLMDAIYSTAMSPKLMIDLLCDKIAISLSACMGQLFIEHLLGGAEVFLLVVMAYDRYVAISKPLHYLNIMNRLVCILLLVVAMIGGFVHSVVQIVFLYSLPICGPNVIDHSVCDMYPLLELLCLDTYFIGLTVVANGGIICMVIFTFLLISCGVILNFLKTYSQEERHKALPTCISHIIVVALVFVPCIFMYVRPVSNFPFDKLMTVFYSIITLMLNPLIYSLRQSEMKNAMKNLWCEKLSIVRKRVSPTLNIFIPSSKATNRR
# Outline: as §1
# OR4A4P (Homo sapiens) = target: T17, OR4A4P (Homo sapiens) (UniProt Q8NGN8)
# T17 sequence (whole entry): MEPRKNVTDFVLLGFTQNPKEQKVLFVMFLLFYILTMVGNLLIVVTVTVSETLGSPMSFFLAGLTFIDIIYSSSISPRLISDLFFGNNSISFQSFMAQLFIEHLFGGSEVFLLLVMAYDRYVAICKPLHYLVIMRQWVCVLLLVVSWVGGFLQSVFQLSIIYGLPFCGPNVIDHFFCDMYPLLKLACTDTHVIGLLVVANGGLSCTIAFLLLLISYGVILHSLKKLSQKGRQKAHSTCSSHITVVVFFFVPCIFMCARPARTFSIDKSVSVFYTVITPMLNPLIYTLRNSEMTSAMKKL
# Outline: as §1
# OR4A5 (Homo sapiens) = target: T18, OR4A5 (Homo sapiens) (UniProt Q8NH83)
# T18 sequence (whole entry): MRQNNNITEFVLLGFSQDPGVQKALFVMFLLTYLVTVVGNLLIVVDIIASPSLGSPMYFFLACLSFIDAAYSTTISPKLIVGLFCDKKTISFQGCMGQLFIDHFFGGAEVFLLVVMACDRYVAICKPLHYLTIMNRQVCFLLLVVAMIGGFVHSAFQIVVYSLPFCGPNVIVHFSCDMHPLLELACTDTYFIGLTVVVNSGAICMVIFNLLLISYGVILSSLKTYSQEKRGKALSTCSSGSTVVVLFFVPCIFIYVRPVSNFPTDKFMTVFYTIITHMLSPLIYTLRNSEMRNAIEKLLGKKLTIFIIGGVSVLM
# Outline: as §1
# OR4A5 = tested on: T19, OR4A5
# T19 sequence (whole entry): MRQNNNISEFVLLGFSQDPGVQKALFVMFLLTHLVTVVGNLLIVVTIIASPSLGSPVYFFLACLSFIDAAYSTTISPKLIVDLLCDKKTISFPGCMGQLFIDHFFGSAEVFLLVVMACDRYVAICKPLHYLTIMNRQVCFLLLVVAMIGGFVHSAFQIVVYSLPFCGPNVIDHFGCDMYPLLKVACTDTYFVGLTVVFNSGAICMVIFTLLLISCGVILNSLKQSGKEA
# Outline: as §1
compound,measurement,setting,value
CCC(C)=O,odorant receptor agonist call,OR2T5,inactive
same,odorant receptor agonist call,OR2T6,inactive
same,odorant receptor agonist call,OR2T8,inactive
same,odorant receptor agonist call,OR2V1,inactive
same,odorant receptor agonist call,OR2V2,inactive
same,odorant receptor agonist call,OR2W1 (Homo sapiens),active
same,odorant receptor agonist call,OR2W1,inactive
same,odorant receptor agonist call,OR2W3,inactive
same,odorant receptor agonist call,OR2W5P (Homo sapiens),inactive
same,odorant receptor agonist call,OR2Y1,inactive
same,odorant receptor agonist call,OR2Z1 (Homo sapiens),inactive
same,odorant receptor agonist call,OR3A1 (Homo sapiens),inactive
same,odorant receptor agonist call,OR3A2 (Homo sapiens),inactive
same,odorant receptor agonist call,OR3A3,inactive
same,odorant receptor agonist call,OR3A4,inactive
same,odorant receptor agonist call,OR4A16 (Homo sapiens),inactive
same,odorant receptor agonist call,OR4A4P (Homo sapiens),inactive
same,odorant receptor agonist call,OR4A5 (Homo sapiens),inactive
same,odorant receptor agonist call,OR4A5,inactive

# Retrieved one by one from above (two):
compound,measurement,setting,value
CCC(C)=O,odorant receptor agonist call,OR4A5 (Homo sapiens),inactive
same,odorant receptor agonist call,OR2W3,inactive

# From the M2OR odorant receptor database
